Experimental data as given in patent US20060111274A1.
Results are given in words; binding and its absence hold for the method and conditions named. In cells and extracts the contact can be indirect. Some binding calls cover weakened binding; strength is not graded here.

Columns and labels:
[1] = target: T1, V7 (a leukocyte surface protein, transmembrane protein also known as CD101) (UniProt Q93033); assay: co-immunoprecipitation from T cell lysate with anti-V7 murine antibody and goat anti-mouse IgG
T1 sequence (looked up): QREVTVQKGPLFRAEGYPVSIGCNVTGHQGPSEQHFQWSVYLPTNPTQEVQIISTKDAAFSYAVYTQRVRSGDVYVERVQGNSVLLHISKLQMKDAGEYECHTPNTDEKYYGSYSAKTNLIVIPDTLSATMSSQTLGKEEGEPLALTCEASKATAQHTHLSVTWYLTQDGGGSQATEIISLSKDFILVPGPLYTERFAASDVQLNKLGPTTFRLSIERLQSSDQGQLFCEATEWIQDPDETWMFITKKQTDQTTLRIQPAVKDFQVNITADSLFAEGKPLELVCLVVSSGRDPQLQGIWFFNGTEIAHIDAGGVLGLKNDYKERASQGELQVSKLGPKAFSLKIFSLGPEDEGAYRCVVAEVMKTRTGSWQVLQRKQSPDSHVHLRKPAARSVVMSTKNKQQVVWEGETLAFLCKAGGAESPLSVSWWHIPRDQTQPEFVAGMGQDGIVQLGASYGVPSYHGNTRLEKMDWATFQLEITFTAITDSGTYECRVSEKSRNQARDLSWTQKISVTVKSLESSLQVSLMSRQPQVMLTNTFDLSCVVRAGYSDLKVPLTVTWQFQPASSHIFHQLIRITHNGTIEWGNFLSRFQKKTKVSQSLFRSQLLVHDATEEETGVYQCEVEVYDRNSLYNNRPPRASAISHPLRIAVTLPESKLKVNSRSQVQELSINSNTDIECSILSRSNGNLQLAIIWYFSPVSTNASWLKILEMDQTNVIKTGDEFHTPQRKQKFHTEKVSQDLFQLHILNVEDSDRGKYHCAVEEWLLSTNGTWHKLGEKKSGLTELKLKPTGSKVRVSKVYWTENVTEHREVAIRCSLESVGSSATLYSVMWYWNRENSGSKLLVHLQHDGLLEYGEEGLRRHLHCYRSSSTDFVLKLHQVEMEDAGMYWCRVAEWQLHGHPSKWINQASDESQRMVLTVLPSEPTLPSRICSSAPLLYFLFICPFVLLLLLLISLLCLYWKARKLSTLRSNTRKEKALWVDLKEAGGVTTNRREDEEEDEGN

[2] = target: T1, V7 (a leukocyte surface protein, transmembrane protein also known as CD101); assay: co-immunoprecipitation from T cell lysate with anti-V7 murine monoclonal antibody and goat anti-mouse IgG

- binding [1]: binds
- binding [2]: binds
Substance: RAF-1 kinase (from UniProt P04049 1-648) (enzyme)
